Source: patent US6770458
Results are given in words; binding and its absence hold for the method and conditions named. For some of these results: Binding calls can cover weak binding; strength is not graded here. Where a sequence is shown, tags or fusion partners need not be part of it. For some of these results: Binding seen in cells or lysates may run through a third protein. Blank lines part the entries; values can stand above or below the binder they belong to.

Assays:
Flag-Smad7 = experiment: co-immunoprecipitation and immunoblot, transfected COS-1 cells
Flag-tagged Smad1(AAVA) = experiment: as above
Smad2 = experiment: as above
Smad4 = experiment: as above
Myc-Smad7 [1] = experiment: sequential immunoprecipitation (restated in the discussion)
Myc-Smad7 [2] = experiment: sequential immunoprecipitation (anti-Flag, Flag peptide elution, anti-Myc), anti-HA blot
Myc-Smad7 [3] = experiment: sequential immunoprecipitation (anti-Flag, Flag peptide elution, anti-Myc), anti-HA blot, COS-1 cells

- binding (Flag-Smad7): binds
- binding (Flag-tagged Smad1(AAVA)): no binding
- binding (Smad2): binds
- binding (Smad4): no binding
B1: STRAP-HA (protein, not shown: small tags and cut ends)
chain: MAMRQTPLTCSGHTRPVVDLAFSGITPYGYFLISACKDGKPMLRQGDTGDWIGTFLGHKGAVWGATLNKDATKAATAAADFTAKVWDAVSGDELMTLAHKHIVKTVDFTQDSNYLLTGGQDKLLRIYDLNKPEAEPKEISGHTSGIKKALWCSDDKQILSADDKTVRLWDHATMTEVKSLNFNMSVSSMEYIPEGEILVITYGRSIAFHSAVSLEPIKSFEAPATINSASLHPEKEFLVAGGEDFKLYKYDYNSGEELESYKGHFGPIHCVRFSPDGELYASGSEDGTLRLWQTVVGKTYGLWKCVLPEEDSGELAKPKIGFPETAEEELAEEIASENSDSIYSSTPEVKA

- binding (Myc-Smad7 [1]): binds
- binding (Myc-Smad7 [2]): binds
- binding (Myc-Smad7 [3]): binds
B2: STRAP-Flag (protein, not shown: small tags and cut ends)
chain: B1 chain
